Data reported in the supplement of paper PMC10849652.
Some of the results follow.

The chains behind the UniProt entries cited, without tags or fusion partners. Where a name states a change or a piece, a line headed by the entry shows the natural chain unless it says otherwise.
UniProt P35916, whole entry, looked up: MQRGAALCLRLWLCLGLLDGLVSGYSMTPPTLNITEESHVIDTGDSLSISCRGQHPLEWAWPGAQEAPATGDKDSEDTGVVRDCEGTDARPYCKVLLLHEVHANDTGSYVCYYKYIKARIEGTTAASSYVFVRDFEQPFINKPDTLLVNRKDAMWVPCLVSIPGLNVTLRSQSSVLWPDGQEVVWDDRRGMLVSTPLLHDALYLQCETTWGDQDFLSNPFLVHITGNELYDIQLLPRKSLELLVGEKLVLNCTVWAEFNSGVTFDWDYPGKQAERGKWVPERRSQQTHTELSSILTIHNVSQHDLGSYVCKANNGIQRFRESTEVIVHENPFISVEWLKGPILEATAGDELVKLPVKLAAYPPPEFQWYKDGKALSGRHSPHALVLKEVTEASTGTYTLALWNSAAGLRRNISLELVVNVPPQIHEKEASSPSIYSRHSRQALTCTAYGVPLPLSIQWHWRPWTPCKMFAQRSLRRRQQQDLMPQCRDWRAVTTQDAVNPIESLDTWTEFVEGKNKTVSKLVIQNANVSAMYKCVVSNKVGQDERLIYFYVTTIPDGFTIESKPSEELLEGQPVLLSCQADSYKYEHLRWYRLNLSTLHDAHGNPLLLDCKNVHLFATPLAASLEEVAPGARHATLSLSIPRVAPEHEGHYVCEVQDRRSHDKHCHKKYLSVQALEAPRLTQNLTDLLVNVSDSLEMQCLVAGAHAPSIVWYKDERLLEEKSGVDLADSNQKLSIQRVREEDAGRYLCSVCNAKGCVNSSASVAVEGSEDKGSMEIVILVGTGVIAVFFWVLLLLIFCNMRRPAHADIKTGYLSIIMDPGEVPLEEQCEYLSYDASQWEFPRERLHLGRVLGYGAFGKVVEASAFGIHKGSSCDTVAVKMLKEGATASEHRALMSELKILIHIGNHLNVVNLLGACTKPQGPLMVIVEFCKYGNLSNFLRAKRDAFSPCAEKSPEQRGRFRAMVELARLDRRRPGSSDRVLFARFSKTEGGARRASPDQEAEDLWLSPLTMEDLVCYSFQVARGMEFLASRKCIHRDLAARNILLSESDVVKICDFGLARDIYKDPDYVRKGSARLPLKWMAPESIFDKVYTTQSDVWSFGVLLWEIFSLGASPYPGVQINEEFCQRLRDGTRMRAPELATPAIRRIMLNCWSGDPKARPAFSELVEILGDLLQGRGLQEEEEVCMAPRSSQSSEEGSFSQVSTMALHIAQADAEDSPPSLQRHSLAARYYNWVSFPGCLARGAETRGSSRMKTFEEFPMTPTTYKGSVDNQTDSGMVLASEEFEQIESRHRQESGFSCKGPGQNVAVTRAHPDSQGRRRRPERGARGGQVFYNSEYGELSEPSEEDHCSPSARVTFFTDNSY
UniProt Q6UN15: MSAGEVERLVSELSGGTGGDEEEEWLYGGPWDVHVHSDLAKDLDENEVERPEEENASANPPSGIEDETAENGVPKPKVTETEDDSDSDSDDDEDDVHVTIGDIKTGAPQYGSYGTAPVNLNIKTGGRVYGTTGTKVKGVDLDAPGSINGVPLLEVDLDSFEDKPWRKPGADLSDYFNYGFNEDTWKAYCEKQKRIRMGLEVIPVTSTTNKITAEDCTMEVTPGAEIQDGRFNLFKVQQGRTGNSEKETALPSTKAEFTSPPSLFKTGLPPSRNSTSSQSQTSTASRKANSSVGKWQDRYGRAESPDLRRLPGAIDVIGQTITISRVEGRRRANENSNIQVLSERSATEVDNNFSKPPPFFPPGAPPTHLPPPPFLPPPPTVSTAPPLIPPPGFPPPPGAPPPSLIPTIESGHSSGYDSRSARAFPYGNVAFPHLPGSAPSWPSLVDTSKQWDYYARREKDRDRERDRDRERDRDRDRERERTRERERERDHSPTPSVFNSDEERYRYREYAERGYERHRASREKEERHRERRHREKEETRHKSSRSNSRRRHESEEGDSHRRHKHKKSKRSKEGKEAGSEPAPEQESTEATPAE
UniProt Q9Y285: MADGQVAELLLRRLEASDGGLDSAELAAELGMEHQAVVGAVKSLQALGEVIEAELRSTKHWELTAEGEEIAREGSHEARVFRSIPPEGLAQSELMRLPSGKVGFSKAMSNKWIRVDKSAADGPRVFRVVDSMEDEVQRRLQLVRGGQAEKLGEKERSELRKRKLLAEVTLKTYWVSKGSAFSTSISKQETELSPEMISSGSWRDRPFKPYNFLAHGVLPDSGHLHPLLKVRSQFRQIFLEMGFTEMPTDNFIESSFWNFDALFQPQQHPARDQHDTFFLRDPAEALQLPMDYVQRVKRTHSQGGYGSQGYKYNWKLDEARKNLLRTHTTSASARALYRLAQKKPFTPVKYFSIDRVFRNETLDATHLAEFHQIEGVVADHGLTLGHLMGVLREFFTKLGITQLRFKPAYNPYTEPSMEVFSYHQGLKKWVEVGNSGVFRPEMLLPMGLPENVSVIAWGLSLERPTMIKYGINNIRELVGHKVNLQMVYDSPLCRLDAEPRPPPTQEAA
UniProt P14324: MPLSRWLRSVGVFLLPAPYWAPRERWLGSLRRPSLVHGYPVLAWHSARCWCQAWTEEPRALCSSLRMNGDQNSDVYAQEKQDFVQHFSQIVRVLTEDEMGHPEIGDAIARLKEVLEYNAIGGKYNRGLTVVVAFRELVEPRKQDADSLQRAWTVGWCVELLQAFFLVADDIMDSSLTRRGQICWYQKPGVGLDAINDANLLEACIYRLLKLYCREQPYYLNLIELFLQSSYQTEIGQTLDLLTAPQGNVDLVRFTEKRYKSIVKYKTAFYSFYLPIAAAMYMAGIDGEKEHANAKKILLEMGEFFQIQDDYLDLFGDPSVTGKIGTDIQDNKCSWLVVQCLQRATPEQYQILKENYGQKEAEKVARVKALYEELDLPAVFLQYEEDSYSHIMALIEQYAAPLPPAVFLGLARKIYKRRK
UniProt Q5T1M5: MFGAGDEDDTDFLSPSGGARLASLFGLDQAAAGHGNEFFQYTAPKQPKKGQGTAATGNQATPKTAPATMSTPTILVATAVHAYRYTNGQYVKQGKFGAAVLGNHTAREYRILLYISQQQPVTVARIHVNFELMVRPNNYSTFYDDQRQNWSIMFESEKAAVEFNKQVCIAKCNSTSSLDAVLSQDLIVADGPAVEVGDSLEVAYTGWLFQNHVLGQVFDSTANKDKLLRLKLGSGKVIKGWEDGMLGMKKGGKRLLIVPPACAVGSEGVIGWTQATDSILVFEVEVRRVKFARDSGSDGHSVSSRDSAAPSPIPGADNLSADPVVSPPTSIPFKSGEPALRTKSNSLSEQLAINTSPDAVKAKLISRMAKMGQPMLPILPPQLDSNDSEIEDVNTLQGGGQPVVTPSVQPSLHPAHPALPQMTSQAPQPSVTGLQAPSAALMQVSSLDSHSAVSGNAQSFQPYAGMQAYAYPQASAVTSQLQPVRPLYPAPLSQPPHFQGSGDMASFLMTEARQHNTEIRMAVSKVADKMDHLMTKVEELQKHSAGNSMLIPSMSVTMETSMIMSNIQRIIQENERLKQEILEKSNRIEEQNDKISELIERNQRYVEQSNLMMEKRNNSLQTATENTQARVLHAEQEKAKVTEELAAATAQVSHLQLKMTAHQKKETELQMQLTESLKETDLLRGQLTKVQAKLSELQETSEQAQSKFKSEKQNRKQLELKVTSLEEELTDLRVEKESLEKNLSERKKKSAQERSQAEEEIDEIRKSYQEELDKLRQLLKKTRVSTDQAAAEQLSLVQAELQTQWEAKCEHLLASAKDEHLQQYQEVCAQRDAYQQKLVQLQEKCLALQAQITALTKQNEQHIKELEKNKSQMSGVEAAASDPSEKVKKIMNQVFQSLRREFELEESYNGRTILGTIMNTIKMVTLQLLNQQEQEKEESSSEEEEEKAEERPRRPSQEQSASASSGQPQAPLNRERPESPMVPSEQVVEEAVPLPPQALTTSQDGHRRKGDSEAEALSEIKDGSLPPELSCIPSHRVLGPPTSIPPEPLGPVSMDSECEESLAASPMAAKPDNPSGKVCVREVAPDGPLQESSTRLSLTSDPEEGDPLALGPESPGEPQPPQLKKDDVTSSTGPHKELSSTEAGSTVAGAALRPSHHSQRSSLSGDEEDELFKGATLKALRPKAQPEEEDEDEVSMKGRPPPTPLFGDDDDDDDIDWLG
UniProt Q13643: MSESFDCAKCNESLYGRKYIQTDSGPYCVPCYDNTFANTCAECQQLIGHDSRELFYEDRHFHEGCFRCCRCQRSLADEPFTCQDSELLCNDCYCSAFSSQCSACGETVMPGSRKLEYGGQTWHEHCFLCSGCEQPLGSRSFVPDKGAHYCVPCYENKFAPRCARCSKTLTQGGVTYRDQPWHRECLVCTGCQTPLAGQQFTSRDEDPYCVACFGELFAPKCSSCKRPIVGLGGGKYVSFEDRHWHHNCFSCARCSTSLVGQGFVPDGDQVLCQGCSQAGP
UniProt A6NHQ2: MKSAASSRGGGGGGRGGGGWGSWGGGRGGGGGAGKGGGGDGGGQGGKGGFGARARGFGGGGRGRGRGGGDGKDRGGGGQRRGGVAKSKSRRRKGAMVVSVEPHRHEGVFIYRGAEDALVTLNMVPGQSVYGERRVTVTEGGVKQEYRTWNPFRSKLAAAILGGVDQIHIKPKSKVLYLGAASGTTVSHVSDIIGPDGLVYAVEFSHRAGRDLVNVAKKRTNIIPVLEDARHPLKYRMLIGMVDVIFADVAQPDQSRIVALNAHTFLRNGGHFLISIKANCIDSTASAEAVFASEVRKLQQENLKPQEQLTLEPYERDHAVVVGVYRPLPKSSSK
UniProt Q9Y5Y0: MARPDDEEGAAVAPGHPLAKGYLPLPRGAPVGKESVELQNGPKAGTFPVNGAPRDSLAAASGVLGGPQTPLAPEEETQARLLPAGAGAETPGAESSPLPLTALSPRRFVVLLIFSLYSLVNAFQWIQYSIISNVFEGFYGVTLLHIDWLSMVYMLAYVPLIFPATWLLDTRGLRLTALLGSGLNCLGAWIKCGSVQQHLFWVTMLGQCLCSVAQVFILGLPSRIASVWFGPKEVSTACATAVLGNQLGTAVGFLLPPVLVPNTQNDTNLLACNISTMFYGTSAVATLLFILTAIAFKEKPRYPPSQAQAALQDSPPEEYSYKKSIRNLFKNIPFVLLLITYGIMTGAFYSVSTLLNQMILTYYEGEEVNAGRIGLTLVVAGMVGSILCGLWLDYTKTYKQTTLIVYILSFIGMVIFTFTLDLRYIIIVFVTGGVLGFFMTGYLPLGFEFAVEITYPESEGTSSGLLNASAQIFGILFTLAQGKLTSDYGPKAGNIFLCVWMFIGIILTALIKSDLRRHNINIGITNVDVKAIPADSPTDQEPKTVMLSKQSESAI
UniProt Q14254: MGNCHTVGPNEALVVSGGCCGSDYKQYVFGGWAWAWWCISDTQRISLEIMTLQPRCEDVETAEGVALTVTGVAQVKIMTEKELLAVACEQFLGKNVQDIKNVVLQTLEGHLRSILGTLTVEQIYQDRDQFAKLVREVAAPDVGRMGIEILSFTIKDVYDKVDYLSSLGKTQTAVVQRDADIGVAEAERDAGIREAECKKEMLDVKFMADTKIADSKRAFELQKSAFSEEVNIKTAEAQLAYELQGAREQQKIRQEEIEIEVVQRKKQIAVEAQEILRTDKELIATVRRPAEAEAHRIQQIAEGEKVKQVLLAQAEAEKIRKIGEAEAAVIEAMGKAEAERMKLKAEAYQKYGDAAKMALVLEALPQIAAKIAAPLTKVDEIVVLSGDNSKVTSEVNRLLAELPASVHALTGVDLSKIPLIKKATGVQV
UniProt Q14318: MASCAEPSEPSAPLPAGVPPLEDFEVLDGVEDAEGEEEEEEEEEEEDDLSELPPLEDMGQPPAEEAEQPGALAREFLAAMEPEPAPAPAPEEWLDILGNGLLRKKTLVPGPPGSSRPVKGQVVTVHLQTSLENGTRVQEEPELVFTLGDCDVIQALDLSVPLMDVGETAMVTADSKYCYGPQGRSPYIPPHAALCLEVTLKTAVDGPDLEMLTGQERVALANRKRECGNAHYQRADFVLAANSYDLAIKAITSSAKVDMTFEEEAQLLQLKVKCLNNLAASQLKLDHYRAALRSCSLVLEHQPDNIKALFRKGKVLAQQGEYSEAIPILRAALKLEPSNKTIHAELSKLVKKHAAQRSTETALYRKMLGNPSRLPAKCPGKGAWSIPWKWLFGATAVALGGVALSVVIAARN
UniProt Q9NUQ9: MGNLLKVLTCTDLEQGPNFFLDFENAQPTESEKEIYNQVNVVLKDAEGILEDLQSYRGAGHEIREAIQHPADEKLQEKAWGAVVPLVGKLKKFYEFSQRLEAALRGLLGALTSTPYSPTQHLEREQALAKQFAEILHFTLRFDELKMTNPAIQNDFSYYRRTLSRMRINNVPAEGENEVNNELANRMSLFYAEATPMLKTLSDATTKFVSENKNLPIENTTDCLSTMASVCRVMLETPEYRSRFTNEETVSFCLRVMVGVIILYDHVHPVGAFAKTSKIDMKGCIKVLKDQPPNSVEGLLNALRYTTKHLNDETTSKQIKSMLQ

Assays:
Experiment in all cases: log2 fold change, soluble protein after heating vs DMSO (PISA); higher = thermal stabilisation; K562 cells, 10 uM, 30 min; active = over 0.2 and 3.5 SD of the protein, either way, in both replicates (recomputed)
bafetinib = compound: Cc1ccc(NC(=O)c2ccc(CN3CC[C@H](N(C)C)C3)c(C(F)(F)F)c2)cc1Nc1nccc(-c2cncnc2)n1 [bafetinib]
How it was run: (§1)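 Thermal stability values are relative to control samples and come from duplicates. They are expressed as log2 fold changes. For measurement, K562 cells (2×10^6 cells/mL) received 10 μM compound for 30 min, and aliquots were heated for 3 min over 48°C-58°C, pooled, and extracted at 4°C in PBS with 0.5% NP-40. Soluble protein, the supernatant after 21,000xg for 90 min, was quantified by TMTpro 16plex LC-MS/MS with equalised channel sums.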

[1] = compound: Cc1cccc(CC(=O)N2CCc3c2ccc(-c2cn(C)c4ncnc(N)c24)c3F)n1
How it was run: as §1

nilotinib = compound: Cc1cn(-c2cc(NC(=O)c3ccc(C)c(Nc4nccc(-c5cccnc5)n4)c3)cc(C(F)(F)F)c2)cn1 [nilotinib]
How it was run: as §1

[2] = compound: Cc1nc(Nc2n[nH]c3c2CN(C(=O)N[C@H](CN(C)C)c2ccccc2)C3(C)C)c2sccc2n1
How it was run: as §1

dasatinib = compound: Cc1nc(Nc2ncc(C(=O)Nc3c(C)cccc3Cl)s2)cc(N2CCN(CCO)CC2)n1 [dasatinib]
How it was run: as §1

[3] = compound: Cc1ncc(-c2ccnc(Nc3ccc(S(C)(=O)=O)cc3)n2)n1C(C)C
How it was run: as §1

[4] = compound: Cn1cc(-c2ccc3c(c2)CCN3C(=O)Cc2cccc(C(F)(F)F)c2)c2c(N)ncnc21
How it was run: as §1

[5] = compound: Cn1cc(-c2ccc3nnc(C(F)(F)c4ccc5ncccc5c4)n3n2)cn1
How it was run: as §1

tipifarnib = compound: Cn1cncc1[C@@](N)(c1ccc(Cl)cc1)c1ccc2c(c1)c(-c1cccc(Cl)c1)cc(=O)n2C [tipifarnib]
How it was run: as §1

mubritinib = compound: FC(F)(F)c1ccc(/C=C/c2nc(COc3ccc(CCCCn4ccnn4)cc3)co2)cc1 [mubritinib]
How it was run: as §1

[6] = compound: NC(=O)Nc1cc(-c2cccc(F)c2)sc1C(=O)N[C@H]1CCCNC1
How it was run: as §1

[7] = compound: NC(=O)c1cnc(N[C@@H]2CCCC[C@@H]2N)nc1Nc1cccc(-n2nccn2)c1
How it was run: as §1

[8] = compound: NC1(c2ccc(-c3nc4ccn5c(=O)[nH]nc5c4cc3-c3ccccc3)cc2)CCC1
How it was run: as §1

[9] = compound: NCC(=O)Nc1ccc(-n2nc(C(F)(F)F)cc2-c2ccc3c(ccc4ccccc43)c2)cc1
How it was run: as §1

entinostat = compound: Nc1ccccc1NC(=O)c1ccc(CNC(=O)OCc2cccnc2)cc1 [entinostat]
How it was run: as §1

vorinostat = compound: O=C(CCCCCCC(=O)Nc1ccccc1)NO [vorinostat]
How it was run: as §1

citarinostat = compound: O=C(CCCCCCNC(=O)c1cnc(N(c2ccccc2)c2ccccc2Cl)nc1)NO [citarinostat]
How it was run: as §1

silmitasertib = compound: O=C(O)c1ccc2c(c1)nc(Nc1cccc(Cl)c1)c1ccncc12 [silmitasertib]
How it was run: as §1

[10] = compound: O=C1NC(=O)C(c2cnc3ccccn23)=C1c1cn2c3c(cc(F)cc13)CN(C(=O)N1CCCCC1)CC2
How it was run: as §1

[11] = compound: c1cc(OCCN2CCCCC2)cc(-c2n[nH]c3ccc(-c4nnc[nH]4)cc23)c1
How it was run: as §1

Measured: log2 fold change

FLT4 (UniProt P35916)
inactive: bafetinib -0.032 | [1] -0.135 | nilotinib 0.405 | [2] 0.062 | dasatinib 0.029 | [3] -0.044 | [4] 0.106 | [5] 0.071 | tipifarnib -0.016 | mubritinib -0.009 | [6] -0.051 | [7] 0.014 | [8] -0.008 | [9] 0.022 | entinostat -0.019 | vorinostat 0 | citarinostat -0.06 | silmitasertib -0.002 | [10] -0.074 | [11] 0.029

FIP1L1 (UniProt Q6UN15)
inactive: bafetinib -0.027 | [1] -0.022 | nilotinib 0.102 | [2] -0.095 | dasatinib 0.091 | [3] -0.021 | [4] -0.104 | [5] -0.038 | tipifarnib 0.083 | mubritinib 0 | [6] 0.026 | [7] 0.042 | [8] 0.11 | [9] 0.04 | entinostat -0.083 | vorinostat 0.011 | citarinostat -0.001 | silmitasertib -0.032 | [10] 0.044 | [11] -0.119

FARSA (UniProt Q9Y285)
inactive: bafetinib 0.021 | [1] 0.071 | nilotinib -0.064 | [2] -0.009 | dasatinib -0.06 | [3] 0.021 | [4] 0.024 | [5] 0.008 | tipifarnib -0.088 | mubritinib 0.03 | [6] -0.041 | [7] -0.03 | [8] -0.097 | [9] -0.063 | entinostat -0.013 | vorinostat 0.041 | citarinostat 0.03 | silmitasertib 0.007 | [10] -0.028 | [11] -0.034

FAU (UniProt P62861)
inactive: bafetinib 0.352 | [1] -0.042 | nilotinib 0.031 | [2] 0.198 | dasatinib 0.151 | [3] -0.029 | [4] -0.192 | [5] -0.199 | tipifarnib 0.164 | mubritinib -0.131 | [6] 0.069 | [7] 0.097 | [8] 0.286 | [9] 0.141 | entinostat -0.104 | vorinostat -0.015 | citarinostat -0.176 | silmitasertib 0.111 | [10] 0.099 | [11] -0.185

FBXL20 (UniProt Q96IG2)
inactive: bafetinib 0.038 | [1] 0.085 | nilotinib -0.003 | [2] 0.008 | dasatinib -0.031 | [3] -0.02 | [4] 0.027 | [5] -0.065 | tipifarnib -0.018 | mubritinib 0.073 | [6] -0.052 | [7] 0.038 | [8] -0.071 | [9] 0.016 | entinostat 0.044 | vorinostat 0.065 | citarinostat -0.012 | silmitasertib 0.005 | [10] -0.112 | [11] 0

FDPS (UniProt P14324)
inactive: bafetinib 0.057 | [1] 0.204 | nilotinib -0.156 | [2] 0.035 | dasatinib -0.392 | [3] -0.027 | [4] 0.209 | [5] 0.441 | tipifarnib -0.258 | mubritinib 0.39 | [6] 0.009 | [7] -0.136 | [8] -0.48 | [9] -0.14 | entinostat 0.001 | vorinostat 0.215 | citarinostat 0.142 | silmitasertib -0.108 | [10] -0.026 | [11] -0.069

FKBP3 (UniProt Q00688)
inactive: bafetinib 0.014 | [1] -0.03 | nilotinib 0.028 | [2] 0.041 | dasatinib -0.003 | [3] 0.029 | [4] -0.006 | [5] 0.021 | tipifarnib -0.01 | mubritinib 0.017 | [6] 0.042 | [7] 0.019 | [8] 0.02 | [9] 0.037 | entinostat 0.016 | vorinostat 0.007 | citarinostat 0.009 | silmitasertib -0.034 | [10] -0.02 | [11] 0.054

FKBP15 (UniProt Q5T1M5)
inactive: bafetinib -0.02 | [1] 0.083 | nilotinib -0.068 | [2] -0.134 | dasatinib -0.058 | [3] -0.064 | [4] -0.044 | [5] -0.005 | tipifarnib -0.033 | mubritinib 0.046 | [6] 0.01 | [7] -0.081 | [8] -0.048 | [9] -0.106 | entinostat 0.082 | vorinostat 0.091 | citarinostat 0.027 | silmitasertib 0.071 | [10] 0.075 | [11] -0.077

FAM98A (UniProt Q8NCA5)
inactive: bafetinib 0.114 | [1] 0.039 | nilotinib 0.006 | [2] 0.084 | dasatinib 0.055 | [3] -0.049 | [4] -0.119 | [5] -0.026 | tipifarnib -0.008 | mubritinib -0.081 | [6] 0.107 | [7] 0.043 | [8] 0.234 | [9] 0.128 | entinostat -0.073 | vorinostat 0.046 | citarinostat -0.033 | silmitasertib 0.06 | [10] 0.174 | [11] -0.108

Retrieved one by one from the entries so far, two records:
FAM98A (UniProt Q8NCA5)
inactive: bafetinib 0.114 | [1] 0.039 | nilotinib 0.006 | [2] 0.084 | dasatinib 0.055 | [3] -0.049 | [4] -0.119 | [5] -0.026 | tipifarnib -0.008 | mubritinib -0.081 | [6] 0.107 | [7] 0.043 | [8] 0.234 | [9] 0.128 | entinostat -0.073 | vorinostat 0.046 | citarinostat -0.033 | silmitasertib 0.06 | [10] 0.174 | [11] -0.108

FKBP3 (UniProt Q00688)
inactive: bafetinib 0.014 | [1] -0.03 | nilotinib 0.028 | [2] 0.041 | dasatinib -0.003 | [3] 0.029 | [4] -0.006 | [5] 0.021 | tipifarnib -0.01 | mubritinib 0.017 | [6] 0.042 | [7] 0.019 | [8] 0.02 | [9] 0.037 | entinostat 0.016 | vorinostat 0.007 | citarinostat 0.009 | silmitasertib -0.034 | [10] -0.02 | [11] 0.054

(further entries)

FHL3 (UniProt Q13643)
inactive: bafetinib -0.058 | [1] -0.089 | nilotinib 0.003 | [2] 0.019 | dasatinib 0.049 | [3] -0.017 | [4] 0.01 | [5] -0.014 | tipifarnib -0.018 | mubritinib 0.004 | [6] -0.022 | [7] -0.002 | [8] 0.001 | [9] -0.004 | entinostat -0.032 | vorinostat -0.042 | citarinostat 0.002 | silmitasertib -0.011 | [10] -0.057 | [11] -0.025

FBLL1 (UniProt A6NHQ2)
inactive: bafetinib 0.298 | [1] 0.043 | nilotinib 0.061 | [2] -0.15 | dasatinib 0.269 | [3] -0.121 | [4] -0.479 | [5] -0.197 | tipifarnib 0.146 | mubritinib -0.153 | [6] 0.122 | [7] 0.25 | [8] 0.341 | [9] 0.08 | entinostat -0.062 | vorinostat -0.074 | citarinostat -0.167 | silmitasertib 0.121 | [10] 0.061 | [11] -0.268

FLVCR1 (UniProt Q9Y5Y0)
inactive: bafetinib 0.032 | [1] -0.153 | nilotinib 0.039 | [2] 0.069 | dasatinib 0.14 | [3] -0.001 | [4] 0.027 | [5] 0.046 | tipifarnib 0.033 | mubritinib -0.084 | [6] -0.119 | [7] -0.021 | [8] 0.048 | [9] -0.026 | entinostat 0.003 | vorinostat -0.06 | citarinostat -0.041 | silmitasertib 0.025 | [10] -0.033 | [11] -0.088

FANCB (UniProt Q8NB91)
inactive: bafetinib -0.014 | [1] 0.02 | nilotinib 0.019 | [2] 0.006 | dasatinib 0.006 | [3] -0.031 | [4] 0.063 | [5] 0.043 | tipifarnib 0.022 | mubritinib 0.073 | [6] 0.077 | [7] -0.016 | [8] 0.024 | [9] 0.03 | entinostat -0.018 | vorinostat -0.073 | citarinostat 0.093 | silmitasertib -0.008 | [10] -0.008 | [11] 0.022

FLOT2 (UniProt Q14254)
inactive: bafetinib 0.126 | [1] 0.02 | nilotinib -0.108 | [2] -0.12 | dasatinib 0.073 | [3] -0.002 | [4] -0.179 | [5] -0.044 | tipifarnib 0.116 | mubritinib -0.082 | [6] -0.029 | [7] -0.069 | [8] -0.054 | [9] 0.041 | entinostat 0.033 | vorinostat -0.057 | citarinostat 0.021 | silmitasertib 0.128 | [10] 0.095 | [11] -0.093

FKBP8 isoform 2 (UniProt Q14318)
inactive: bafetinib 0.22 | [1] 0.072 | nilotinib -0.082 | [2] -0.08 | dasatinib 0 | [3] -0.023 | [4] -0.139 | [5] -0.142 | tipifarnib 0.049 | mubritinib -0.14 | [6] -0.007 | [7] -0.027 | [8] 0.005 | [9] 0.035 | entinostat 0.017 | vorinostat 0.085 | citarinostat 0.046 | silmitasertib 0.062 | [10] 0.137 | [11] -0.128

FAM49B (UniProt Q9NUQ9)
inactive: bafetinib -0.001 | [1] 0.011 | nilotinib -0.003 | [2] -0.017 | dasatinib -0.057 | [3] -0.012 | [4] 0.062 | [5] 0.037 | tipifarnib -0.009 | mubritinib 0.047 | [6] -0.035 | [7] -0.023 | [8] -0.093 | [9] -0.028 | entinostat -0.031 | vorinostat 0.025 | citarinostat 0.017 | silmitasertib 0.014 | [10] -0.02 | [11] -0.017
